Drawing on patent US9044491B2, “Method for improving blood flow using stilbenoid derivatives” (The Board of Trustees of the University of Arkansas, priority 2010, dated 2015), this text covers G-protein activity for one molecule.

By UniProt entry, the sequences of proteins in these tests, tags left out.
UniProt P47746, whole entry: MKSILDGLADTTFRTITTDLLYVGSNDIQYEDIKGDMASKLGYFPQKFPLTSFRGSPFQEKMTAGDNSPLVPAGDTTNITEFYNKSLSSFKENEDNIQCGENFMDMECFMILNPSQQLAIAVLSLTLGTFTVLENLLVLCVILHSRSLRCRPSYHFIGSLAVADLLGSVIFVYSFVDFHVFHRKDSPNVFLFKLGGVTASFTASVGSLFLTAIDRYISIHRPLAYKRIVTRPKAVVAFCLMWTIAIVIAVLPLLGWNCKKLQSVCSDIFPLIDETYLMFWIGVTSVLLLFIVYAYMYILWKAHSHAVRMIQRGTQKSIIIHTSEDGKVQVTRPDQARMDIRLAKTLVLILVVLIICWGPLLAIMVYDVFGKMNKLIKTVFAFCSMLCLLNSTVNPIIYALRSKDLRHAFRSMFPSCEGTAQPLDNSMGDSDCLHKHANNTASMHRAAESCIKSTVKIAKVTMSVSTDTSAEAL

The experiment addresses T1, CB1 receptors (Mus musculus, UniProt P47746).
T1 construct: from tissue; host or cells: mouse brain membranes
Format: biochemical. The following applies: 1 μM compound, 30 min at 30° C.

Turning to `Cc1c(C(=O)NN2CCCCC2)nn(-c2ccc(Cl)cc2Cl)c1-c1ccc(I)cc1` [AM251], the G-protein activity result is recorded as “inhibited”.
